For at least one compound, name, drawing or mass did not settle the structure.
Assays:
Type in all cases: cell-based, human
NPBSCs [1] = assay: Rostrocaudal repatterning of NPBSCs by RA (qRT-PCR); conditions: RA for 8 days
differentiating hEBs [2] = assay: NPBSC derivation from EBs with CHIR and/or PMA; conditions: EBs treated with the indicated small molecules; morphology, neural markers
Method: For generation of NPBSCs from pluripotent stem cells, colonies were detached from the MEFs three to four days after splitting, using 2 mg/ml collagenase IV (Invitrogen). Colony pieces were collected by sedimentation and resuspended in hESC medium (without FGF2) supplemented with 10 μM SB-431542 (Ascent Scientific), 1 μM dorsomorphin (Tocris) for neural induction, as well as 3 μM CHIR 99021 (Axon Medchem), 0.5 μM PMA (Alexis) and cultured in petri dishes. Medium was replaced on day two by N2B27 supplemented with the same small molecule supplements. N2B27 consisted of DMEM-F12 (Invitrogen)/Neurobasal (Invitrogen) 50:50 with 1:200 N2 supplement (Invitrogen), 1:100 B27 supplement lacking vitamin A (Invitrogen) with 1% Penicillin/Streptomycin/Glutamine (PAA). On day four, SB-431542 and dorsomorphin were withdrawn and 150 μM Ascorbic Acid (AA; Sigma) was added to the medium. […] BD Biosciences) 12 well plates at a density of about ten to fifteen per well in NPBSC expansion medium (N2B27 with CHIR, PMA and AA). For coating, Matrigel was diluted to a final dilution of 1:100 in Knockout DMEM (Invitrogen) prior to coat 500 μl per well of a 12 well plate over night. Coated plates were wrapped with Parafilm and kept in the fridge for up to one month. The first split was performed at a 1:5 to 1:10 ratio on day 2 to 4 after plating. All the remaining splitting ratios were 1:10. […]

NPBSCs [3] = assay: Directed differentiation of NPBSCs into PNS neurons; conditions: qRT-PCR, 8 days of treatment
Method: For generation of PNS neurons, NPBSCs two days after splitting were switched to N2B27 with only CHIR for two days. Afterward, 10 ng/ml BMP4 (R&D Systems) was added for eight days. Splitting and maturation was performed as described for the generation of motor neurons. For astrocyte and mesenchymal neural crest differentiation, NPBSCs were cultured with DMEM (PAA) with 10% fetal calf serum (PAA) and 1% Pen/Strep/Glutamin (PAA), beginning two days after splitting. Cultures were split twice at a 1:3 ratio when confluent using trypsin (Invitrogen).
For confocal microscopy, cells were plated on Matrigel-coated glass coverslips. Cultures were fixed for 20 minutes with 4% paraformaldehyde (Electron Microscopy Sciences) in PBS (Invitrogen) and washed twice with PBS. Permeabilization and blocking was done in one step using 0.1% Triton X-100 (Sigma Aldrich), 10% fetal calf serum (PAA) and 1% BSA in PBS for 45 minutes. […] Cells were mounted in Vectashield mounting medium (Vector Labs) and imaged on a Zeiss PALM/Axiovert fluorescence microscope or a Zeiss LSM700 confocal microscope. […]
Total RNA was isolated from cultured cells using RNeasy columns (Qiagen), according to manufacturer instructions, including an on-column DNase digest. […] Relative expression levels were calculated using the 2^−2Δ method, normalized to biological reference samples and using GAPDH and ACTB as housekeeping genes. […]

NPBSCs [4] = assay: Dorsoventral patterning of NPBSCs by CHIR and PMA (qRT-PCR, immunostaining)
Method: Total RNA was isolated from cultured cells using RNeasy columns (Qiagen), according to manufacturer instructions, including an on-column DNase digest. Isolated RNA was reverse-transcribed using M-MLV Reverse Transcriptase (USB) with oligo-[…] primers (Metabion) for 1 h at 42° C. qRT-PCR was performed on an Applied Biosystems 7500 Real-Time PCR system with SYBR green PCR master mix (ABI) and 56 ng of original RNA equivalents per 20 μl PCR reaction. Cycling conditions were 40 cycles of 15 s, 95° C./60 s 60° C. Relative expression levels were calculated using the […] method, normalized to biological reference samples and using GAPDH and ACTB as housekeeping genes. Next, we sought to determine if NPBSCs remain competent for WNT and SHH mediated patterning of neural fate commitment. […] SHH signaling opposes dorsal neural fates and specifies ventral fates (Ulloa and Briscoe, 2007). […] Therefore, we conclude that NPBSCs are receptive to WNT and SHH induced dorsoventral patterning of neural fate specification. […] As such, the upregulation of these markers by NPBSCs could also be because of assuming a neural plate border and/or neural crest identity. To test this possibility, we assessed the responsiveness of the CNS progenitor marker SOX1 to SHH and WNT signaling. […] The inhibition by CHIR is the same that induced MSX1 and PAX3 upregulation.

differentiating hEBs [5] = assay: qRT-PCR for ventral markers on differentiating EBs treated with PMA from different days; conditions: PMA delayed as little as two more days
NPBSCs [6] = assay: NPBSC doubling time at different PMA concentrations; conditions: 0.25 μM or 1 μM PMA compared with 0.5 μM PMA

| Structure (SMILES) | HOXA2 expression (NPBSCs [1]) | HOXA4, HOXB4 expression (NPBSCs [1]) | HOXB9 upregulation (NPBSCs [1]) | outcome of NPBSC derivation from EBs (differentiating hEBs [2]) | PERIPHERIN and BRN3A expression (NPBSCs [3]) | specification of floor plate (FOXA2 immunostaining) (NPBSCs [4]; immunostaining) | GLI2 expression (NPBSCs [4]; qRT-PCR, 6 days) | SOX1 expression (NPBSCs [4]; qRT-PCR, 6 days) | expression of ventral neural markers NKX6-1, NKX2-1, OLIG2, and FOXA2 (NPBSCs [4]; qRT-PCR, 6 days, PMA 1 μM with CHIR or PMA alone) | efficiency of ventral neural tube fate specification as marked by NKX6.1 and OLIG2 expression (differentiating hEBs [5]) | doubling time of NPBSCs (NPBSCs [6]) |
| --- | --- | --- | --- | --- | --- | --- | --- | --- | --- | --- | --- |
| CC1=C(/C=C/C(C)=C/C=C/C(C)=C/C(=O)O)C(C)(C)CCC1 [RA, (2E,4E,6E,8E)-3,7-dimehyl-9-(2,6,6-trimethylcyclohexen-1-yl)nona-2,4,6,8-tetraenoic acid] | downregulated | upregulated | not | – | – | – | – | – | – | – | – |
| c1ccc2c(Oc3nc(Nc4ccc(N5CCOCC5)cc4)c4ncn(C5CCCCC5)c4n3)cccc2c1 [PMA, 9-cyclohexyl-N-[4-(morpholinyl)phenyl]-2-(1-naphthalenyloxy)-9H-purin-6-amine] | – | – | – | intensive neurite formation | essentially abolished expression | dose dependent specification of floor plate | upregulated | induced | induced upregulation | significant decrease | higher |

Source: US10711244B2, “Mammalian neural plate border stem cells capable of forming neural tube and neural crest cell lineages including central and peripheral neurons” (Max-Planck-Gesellschaft zur Förderung der Wissenschaften …, priority 2012, dated 2020)
